Reference: patent publication EP4755920A1
Where a chain is given by its changes, count along the chain named. No constants are given. Whether binding was seen depends on the method and setting. Some entries that bind do so weakly or less than the wild type. Blank lines part the entries; values can stand above or below the binder they belong to.

Amino acid sequences for entries named in this document (tags omitted). Residues count along the entry.
UniProt P24394, residues 26-825: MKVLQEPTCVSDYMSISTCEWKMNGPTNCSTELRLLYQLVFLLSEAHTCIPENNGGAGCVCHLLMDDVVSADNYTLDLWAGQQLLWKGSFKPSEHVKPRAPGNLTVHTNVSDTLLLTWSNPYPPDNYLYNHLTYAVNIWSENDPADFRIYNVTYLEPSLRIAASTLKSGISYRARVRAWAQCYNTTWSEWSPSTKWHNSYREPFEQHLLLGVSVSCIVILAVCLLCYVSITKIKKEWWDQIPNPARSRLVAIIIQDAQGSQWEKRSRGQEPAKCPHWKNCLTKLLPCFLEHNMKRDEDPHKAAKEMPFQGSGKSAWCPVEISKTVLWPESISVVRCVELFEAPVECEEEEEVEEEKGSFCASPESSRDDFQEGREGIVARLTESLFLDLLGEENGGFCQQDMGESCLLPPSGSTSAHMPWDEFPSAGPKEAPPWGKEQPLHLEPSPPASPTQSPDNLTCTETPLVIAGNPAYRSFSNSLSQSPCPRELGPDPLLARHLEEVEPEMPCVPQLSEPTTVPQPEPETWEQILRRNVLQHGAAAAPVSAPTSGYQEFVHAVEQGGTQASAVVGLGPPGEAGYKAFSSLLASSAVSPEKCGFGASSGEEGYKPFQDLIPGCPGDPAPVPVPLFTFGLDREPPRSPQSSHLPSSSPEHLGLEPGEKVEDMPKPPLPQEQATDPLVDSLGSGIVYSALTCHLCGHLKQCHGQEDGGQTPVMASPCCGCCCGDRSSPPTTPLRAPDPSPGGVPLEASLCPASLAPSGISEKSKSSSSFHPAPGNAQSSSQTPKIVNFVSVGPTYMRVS

Legend:
[1] = target: Full-length hIL4Rα on human IL4Rα-293T cells (human) (UniProt P24394); assay: flow cytometry on human IL4Rα-293T cells
[2] = target: cynoIL4Rα-ECD(26-232)-His (cynomolgus monkey); assay: ELISA, biotinylated antigen on streptavidin plate

B1: IL4R-CHI-13 (antibody, V domains shown)
VH: EVQLQQSGPVLVKPGASVKMSCKASGYTFTDYYMNWVKQRHGKSLDWIGTINPYNGGTGYNQKFKGKATLTVDKSSSTAYMELNSLTSEDSAVYFCARSLLRRRGAMDYWGQGTSVTVSS
VL: DIVLTQSPASLVVSLGQRATISCRASKSVSTSGYGYIHWYRQKPGQPPKLLIYLVSNLESGVPARFSGSGSGTDFTLNIHPVEEEDAATYYCQHIRELYTFGGGTKLEIK
- binding [1]: binds
- binding [2]: binds

B2: IL4R-CHI-07 (antibody, V domains shown)
VH: QVQLQQSGAELVKPGASVKLSCKASGYTFTEYTIHWVKQRSGQGLEWIGWFYPGRGSIKYNEKFKDKATLTADKSSSTVYMELSRLTSEDSAVYFCTRHEYRGSNYAMDYWGQGTSVTVSS
VL: DVLMTQTPLSLPVSLGDQASISCRSSQSIVHSSGNTYLQWYLQKPGQSPKLLIYKVSNRFSGVPDRFSGSGSGTDFTLKISRVEAEDLGVYYCFQGSHVPPTFGGGTKLEIK
- binding [1]: binds
- binding [2]: binds

B5: IL4R-CHI-04 (antibody, V domains shown)
VH: DVQLQESGPGLVKPSQSLSLTCTVTGYSITSDYAWNWIRQFPGNKLEWMGYISYSGSSSYNPSLKSRISITRDTSKNQFFLQLNSVTTDDTATYYCAGGGLRRRGLFDYWGQGTTLTVSS
VL: QIVLSQSPAILSASPGEKVTMTCRATSSVTYMHWYQQKPGSSPKPWIYATSNLASGVPARFSGSGSGTSYSLTISRVEAEDTATYYCQQWSSIPLTFGAGTKLELK
- binding [1]: binds
- binding [2]: binds

B7: IL4R-CHI-17 (antibody, V domains shown)
VH: QAYLQQSGAELVRPGASVKMSCKASGYTFTSYNMHWAKQTPRQGLEWIGSIYPGNGDTSYNQKFKGKATLTVDKSSSTAYMQLSSLTSEDSAVYFCARGGRLRRGDWFAYWGQGTLVTVSA
VL: DIQMTQSPASLSASVGETVTITCRASENIYSYLIWYQQKQGKSPQLLVYDAKTLAEGVPSRFSGSGSGSQFSLKINSLQPEDFGTYYCQHHYGTPLTFGGGTKLELK
- binding [1]: binds
- binding [2]: binds

B9: IL4R-CHI-14 (antibody, V domains shown)
VH: EVMLVESGGGLVKPGGSLKLSCAASGFTFSSYAMSWVRQTPEKRLEWVAIISGGGDSTYYPDSVKGRFTISRDNAKNTLYLQMSSLRSEDTALYFCARLHYWYFDFWGTGTTVTVSS
VL: DIQMTQSSSSFSVSLGDRVTITCKASEDLYNRLAWYQQKPGNAPRLLISGATSLETGVPSRFSGSGSGRDYTLIITSLQTEDVATYYCQQYWRNPYTFGGGTKLEIK
- binding [1]: binds
- binding [2]: binds

More lines, now with the values ahead:

- binding [2]: binds
B3: IL4R-hum-04H7L1 (antibody, V domains shown)
VH: EVQLQESGPGLVKPSETLSLTCTVSGYSISSDYAWNWIRQPPGKGLEWIGYISYSGSSSYNPSLKSRVTISVDTSKNQFSLKLSSVTAADTAVYYCARGGLRRRGLFDYWGQGTTVTVSS
VL: DIQLTQSPSFLSASVGDRVTITCRATSSVTYMHWYQQKPGKAPKPWIYATSNLASGVPSRFSGSGSGTEFTLTISSLQPEDFATYYCQQWSSIPLTFGQGTKLEIK

- binding [2]: binds
B4: IL4R-hum-13H1aL2a (antibody, V domains shown)
VH: EVQLVQSGAEVKKPGASVKVSCKASGYTFTDYYMNWVRQAPGQRLEWMGTINPYNAGTGYNQKFKGRVTITVDKSASTAYMELSSLRSEDTAVYYCARSLLRRRGAMDYWGQGTTVTVSS
VL: DIVLTQSPDSLAVSLGERATINCRASKSVSTSGYGYIHWYQQKPGQPPKLLIYLVDNLESGVPDRFSGSGSGTDFTLTISSLQAEDVATYYCQHIRELYTFGGGTKVEIK

- binding [1]: binds
- binding [2]: binds
B6: IL4R-CHI-18 (antibody, V domains shown)
VH: QVQLKQSGPGLVQPSQSLSVTCTVSGFSLTNYGVHWVRQSPGKGLEWLGVIWSGGSTDYNAAFKSRLSISKDNSKSQVFFKMNSLQADDTAIYYCARNKGTRPVFDYWGQGTTLTVSS
VL: DIQMTQSPASLSASVGETVTITCRASENIYSYLAWYQQKQGKSPQLLVYNAKTLAEGVPSRFSGSGSGTQFSLKINSLQPEDFGSYYCQHYVSPLTFGAGTKLEVK

- binding [2]: binds
B8: IL4R-hum-18H5L1 (antibody, V domains shown)
VH: EVTLKESGPVLVKPTETLTLTCTVSGFSLTNYGVHWIRQPPGKALEWLGVIWSGGSTDYNAAFKSRLTISKDNSKSQVVLTMTNMDPVDTATYYCARNKGTRPVFDYWGQGTTVTVSS
VL: DIQMTQSPSSLSASVGDRVTITCRASENIYSYLAWYQQKPGKAPKLLIYNAKTLAEGVPSRFSGSGSGTDFTLTISSLQPEDFATYYCQHYVSPLTFGQGTKLEIK

- binding [2]: binds
B10: IL4R-hum-14L2H2 (antibody, V domains shown)
VH: B9 VH with M3Q, K13Q, K19R, T40A, T78S, S84N, S88A, L93V, F95Y, T109Q
VL: DIQMTQSPSSLSASVGDRVTITCKASEDLYNRLAWYQQKPGKAPKLLISGATSLETGVPSRFSGSGSGRDFTLTISSLQPEDFATYYCQQYWRNPYTFGGGTKVEIK
